Results taken from US20150018285A1 (CARMEL HAIFA UNIVERSITY ECONOMIC, published 2015).
Results are given in words; binding and its absence hold for the method and conditions named. For part of these data: In cells and extracts the contact can be indirect. Some entries that bind do so weakly or less than the wild type. For part of these data: Tags and fused reporters may be left off the sequences shown.

The chains behind the UniProt entries cited, without tags or fusion partners. Where a name states a change or a piece, a line headed by the entry shows the natural chain unless it says otherwise.
UniProt P10415: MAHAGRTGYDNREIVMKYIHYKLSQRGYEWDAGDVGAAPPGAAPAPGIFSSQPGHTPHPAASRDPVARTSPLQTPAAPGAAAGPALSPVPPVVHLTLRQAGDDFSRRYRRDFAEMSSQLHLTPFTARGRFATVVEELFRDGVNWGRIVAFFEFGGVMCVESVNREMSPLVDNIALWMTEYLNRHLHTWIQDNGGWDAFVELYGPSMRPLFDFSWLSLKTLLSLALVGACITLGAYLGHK
UniProt P98170: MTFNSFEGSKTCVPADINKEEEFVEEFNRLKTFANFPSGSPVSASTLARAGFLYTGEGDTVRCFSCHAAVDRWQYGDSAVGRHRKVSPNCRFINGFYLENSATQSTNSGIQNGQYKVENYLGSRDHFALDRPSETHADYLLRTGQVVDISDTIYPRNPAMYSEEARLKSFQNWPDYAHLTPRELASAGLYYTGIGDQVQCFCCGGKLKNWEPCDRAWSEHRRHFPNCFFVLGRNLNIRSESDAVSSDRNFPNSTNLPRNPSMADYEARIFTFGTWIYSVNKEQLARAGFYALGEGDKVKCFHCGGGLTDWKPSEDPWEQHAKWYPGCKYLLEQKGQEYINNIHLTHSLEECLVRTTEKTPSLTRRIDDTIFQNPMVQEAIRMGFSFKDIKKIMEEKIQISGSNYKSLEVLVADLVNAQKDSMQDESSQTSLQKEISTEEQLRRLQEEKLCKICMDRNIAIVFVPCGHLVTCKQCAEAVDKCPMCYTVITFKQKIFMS

Tests used:
[1] = target: T1, B-cell CLL/lymphoma 2 (Bcl-2) (human, UniProt P10415 1-239); test: IP with anti-ARTS monoclonal antibody from COS-7 cells transfected with the 6-Myc-ARTS construct; the partner is endogenous in COS-7 (FIG. 4B)
T1 construct: Used as endogenous Bcl-2 (HeLa, BT-549) or from a transfected Bcl-2 construct; also called Bch 2; endogenous Bcl-2

[2] = target: T1, B-cell CLL/lymphoma 2 (Bcl-2); test: pull-down with anti-myc agarose beads from COS-7 cells co-transfected with Bcl-2 and ARTS, Western blot (FIG. 4A)
[3] = target: T1, B-cell CLL/lymphoma 2 (Bcl-2); test: immunoprecipitation of ARTS from cell lysates, Western blot (FIG. 4B)
[4] = target: T1, B-cell CLL/lymphoma 2 (Bcl-2); test: IP of the mitochondrial fraction with anti-Bcl-2 antibody, Western blot (FIG. 4E)
[5] = target: T1, B-cell CLL/lymphoma 2 (Bcl-2); test: IP with monoclonal anti-ARTS antibody from HeLa wt lysate, Western blot (FIG. 9); binding still seen after 24 h of ABT-263
[6] = target: T1, B-cell CLL/lymphoma 2 (Bcl-2); test: IP with anti-XIAP or anti-ARTS antibody from HeLa cells after 1.75 uM STS for 2 h (FIGS. 4C, 4D)
[7] = target: T1, B-cell CLL/lymphoma 2 (Bcl-2); test: IP with monoclonal anti-ARTS antibody, Western blot with anti-Bcl-2 (FIG. 10)
[8] = target: T1, B-cell CLL/lymphoma 2 (Bcl-2); test: IP with monoclonal anti-ARTS antibody (400 ug protein) after 25 uM ABT-263 for 3 and 24 h, with or without QVD, Western blot (FIG. 10)
[9] = target: T1, B-cell CLL/lymphoma 2 (Bcl-2); test: IP of transfected HeLa lysates with anti-Bcl-2 antibody, Western blot with anti-ARTS (FIG. 11A)
[10] = target: T1, B-cell CLL/lymphoma 2 (Bcl-2); test: IP with monoclonal anti-ARTS antibody from HeLa wt lysate (750 ug), with or without 25 uM ABT-263 for 24 h, Western blot (FIG. 9)
[11] = target: T1, B-cell CLL/lymphoma 2 (Bcl-2); test: IP of endogenous Bcl-2 from HeLa cells, Western blot (FIG. 4E)
[12] = target: T1, B-cell CLL/lymphoma 2 (Bcl-2); test: co-IP with anti-ARTS antibody from HeLa lysates, with or without 1.75 uM STS for 2 h, Western blot (FIG. 4D)
[13] = target: T1, B-cell CLL/lymphoma 2 (Bcl-2); test: IP with anti-ARTS monoclonal antibody from HeLa and BT-549 cells, Western blot (FIG. 4B)
[14] = target: XIAP cloned into pBiFC-VN173 (1-172) (human) (UniProt P98170); test: split-Venus BiFC in HeLa cells, read by flow cytometry; positive control
[15] = target: Bcl-2 cloned into pBiFC-VN173 (human) (UniProt P10415); test: split-Venus BiFC in HeLa cells, read by flow cytometry

Measured: binding

B1: 6-Myc-ARTS (other)
chain: MIKRFLEDTTDDGELSKFVKDFSGNASCHPPEAKTWASRPQVPEPRPQAPDLYDDDLEFRPPSRPQSSDNQQYFCAPAPLSPSARPRSPWGKLDPYDSSEDDKEYVGFATLPNQVHRKSVKKGFDFTLMVAGESGLGKSTLVNSLFLTDLYRDRKLLGAEERIMQTVEITKHAVDIEEKGVRLRLTIVDTPGFGDAVNNTECWKPVAEYIDQQFEQYFRDESGLNRKNIQDNRVHCCLYFISPFGHGYGPSLRLLAPPGAVKGTGQEHQGQGCH
notes: Expressed by transient transfection in COS-7 cells; also called pSC2-6Myc ARTS; not shown: 6xMyc tag of pSC2-6Myc
binds: [1] | [2]

B2: Apoptosis Related Protein in the TGF-beta Signaling Pathway (ARTS) (other)
chain: B1 chain
notes: also called FL ARTS; full length ARTS
not listed: [1] | [2] | [14] | [15]
binds: all other assays above

B3: ARTS cloned into pBiFC-VC155 (155-238) (protein, not shown: large carriers)
chain: B1 chain
binds: [14] | [15]
